{
  "source": "patent US20110039770A1",
  "about": "“INHIBITORS OF PROTEIN KINASE C ISOFORMS AND USES THEREOF” (PHARMAGAP INC., priority 2005, published 2011)",
  "binders": {"B1": {"name": "PRE 8 (peptide)", "peptide": "ILEDKGGDAQNLIGISI"}},
  "target": "PKC-βI in extracts of human cell lines (human), P05771",
  "assay": "Western-blot competition, cell extracts: PRE at 10X/20X the anti-PKC beta I primary antibody concentration competes with that antibody; band densitometry (lower band = PRE bound)",
  "conditions": "remark: other sources report otherwise",
  "note": "Results are given in words; binding and its absence hold for the method and conditions named. Some binding calls cover weakened binding; strength is not graded here.",
  "data": [
    {"binder": "B1", "values": [
      {"measurement": "binding", "value": "binds"}
    ]}
  ]
}
